Reference: paper PMC4423214
Results are given in words; binding and its absence hold for the method and conditions named. In cells and extracts the contact can be indirect. Binding can be weak; no strength is given. Tags and fused reporters may be left off the sequences shown.

Target: T1, ASK1 C-terminal (CT: 955–1,374 amino acids) domain, HA-tagged (human) (UniProt Q99683)
T1 sequence: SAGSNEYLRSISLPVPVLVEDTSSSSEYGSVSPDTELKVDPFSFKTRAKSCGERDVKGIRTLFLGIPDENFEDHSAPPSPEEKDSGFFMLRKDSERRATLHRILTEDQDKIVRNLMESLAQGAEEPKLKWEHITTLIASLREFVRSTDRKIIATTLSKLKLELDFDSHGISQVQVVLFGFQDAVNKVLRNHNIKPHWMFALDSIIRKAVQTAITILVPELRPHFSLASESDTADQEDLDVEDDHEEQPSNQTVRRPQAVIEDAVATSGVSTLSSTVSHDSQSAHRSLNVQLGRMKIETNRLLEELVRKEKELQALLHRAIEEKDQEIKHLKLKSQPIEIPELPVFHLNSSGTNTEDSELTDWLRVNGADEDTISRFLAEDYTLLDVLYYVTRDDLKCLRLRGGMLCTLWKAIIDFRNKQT
Test: co-IP; HEK293 cells cotransfected; lysates in HBST buffer (10 mM HEPES pH 7.4, 150 mM NaCl, 0.5% Triton-X-100) immunoprecipitated with anti-HA affinity gel; bound Vif detected by western blot

Substance: HIV-1 NL4-3 Vif
- binding: binds
